{"source": "PubChem BioAssay AID1508597, Cure First | 2020", "aim": "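Genes whose silencing sensitises or protects ovarian cancer cells against rucaparib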 (primary screen)", "system": "human ovarian carcinoma lines grown from tumours: OCI-P5x (papillary serous) and OCI-C5x (clear cell)", "reagents": "siRNA pool against human genes, 1.25 pmol siRNA per well", "timing": "72 h or 96 h, depending on the cell culture", "treatment": "rucaparib 20 µM (about IC30) or vehicle, present until read-out", "rucaparib or vehicle": "Vehicle", "cell line": "OCI-P5x (serous)", "measured": "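Luminescent ATP-based viability assay read 72 or 96 h after transfection, depending on culture, given as normalised percent viability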", "direction": "viability, normalised: higher = more viable cells remaining", "call rule": "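a well counts as a hit if its normalised viability is under 80 percent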", "meaning of the calls": "active = viability under 80%; inactive = viability 80% or more", "note": "This is an unselected part of the about 2,100 reagents, in one setting of the screen. 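Calls flag viability under 80% in either arm, not effects specific to rucaparib; the reference for percent is not stated.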 Reagent sequences are not shown. Not stated in the record: the 100% reference."}
{"target gene": "DQX1", "technical replicate": "1", "viability, normalised (%)": 65.2, "outcome": "active"}
{"target gene": "DQX1", "technical replicate": "2", "viability, normalised (%)": 76.5, "outcome": "active"}
{"target gene": "DQX1", "technical replicate": "3", "viability, normalised (%)": 72.6, "outcome": "active"}
{"target gene": "CSK", "technical replicate": "1", "viability, normalised (%)": 67.8, "outcome": "active"}
{"target gene": "CSK", "technical replicate": "2", "viability, normalised (%)": 77.6, "outcome": "active"}
{"target gene": "CSK", "technical replicate": "3", "viability, normalised (%)": 74.9, "outcome": "active"}
{"target gene": "DDX27", "technical replicate": "1", "viability, normalised (%)": 60.1, "outcome": "active"}
{"target gene": "DDX27", "technical replicate": "2", "viability, normalised (%)": 91.4, "outcome": "inactive"}
{"target gene": "DDX27", "technical replicate": "3", "viability, normalised (%)": 97.2, "outcome": "inactive"}
{"target gene": "MAP1B", "technical replicate": "1", "viability, normalised (%)": 46.7, "outcome": "active"}
{"target gene": "MAP1B", "technical replicate": "2", "viability, normalised (%)": 61, "outcome": "active"}
{"target gene": "MAP1B", "technical replicate": "3", "viability, normalised (%)": 66.4, "outcome": "active"}

In a second layout: 2 of the entries above.
target gene,technical replicate,"viability, normalised (%)",outcome
DQX1,3,72.6,active
CSK,1,67.8,active
